According to PubChem BioAssay AID330 (DTP/NCI, 2004):
The list does not hold the whole screen: it gathers tests that were run many times, whatever their T/C, doses with no T/C, and many T/C values between a quarter and a half above the control. Other doses and runs of a compound stand elsewhere. T/C: endpoint of the treated group in % of that of the vehicle group. Some doses have a count of surviving animals in place of a T/C: the source holds a T/C of zero for them, seemingly a mark for toxic or unscored doses. Some survivor counts are full or nearly so, which does not show that the dose was tolerated: the source hardly ever lists a survival T/C far under the control, and the zero likely stands for such cases as well. Counts of survivors are from the toxicity check (mostly the fifth day) where no day follows; animals may have died later. Schedules are NCI's codes, taken here to give the interval after Q, in days (D) or hours (H), and the number of doses after X. Some entries were tested several times; the values are given in rising order. For survival time, this PubChem deposit counts one and a half times the control or more as active, and values a quarter to a half above the control carry no call in these data; other NCI protocols may use other cut-offs. Some T/C values are followed by the survivors on the day toxicity was checked, most often the fifth; where none is given, no animal had died by that day.

Tested on: P388 leukemia ip, CD2F1 mice, survival T/C
Assay: NCI In Vivo Anticancer Drug Screen. Data for tumor model P388 Leukemia (intraperitoneal) in CD2F1 (CDF1) mice
Conditions: T/C endpoint: median survival time, higher T/C = longer survival
[1] = dose: 240.0 mg/kg/injection, schedule: Q01DX005 (ip), vehicle: saline with Tween-80
[2] = dose: 100.0 mg/kg/injection, schedule: Q01DX009 (ip), vehicle: saline with Tween-80
[3] = dose: 200.0 mg/kg/injection, schedule: Q01DX009 (ip), vehicle: saline with Tween-80
[4] = dose: 100.0 mg/kg/injection, schedule: Q01DX005 (ip), vehicle: saline with Tween-80
[5] = dose: 200.0 mg/kg/injection, schedule: Q01DX009 (ip), vehicle: Klucel (hydroxypropylcellulose) (HPC)
[6] = dose: 200.0 mg/kg/injection, schedule: Q01DX005 (ip), vehicle: saline with Tween-80

Which T/C (dose: 0.2 mg/kg/injection, schedule: Q01DX009 (ip), vehicle: water) does the source give for `COc1cccc2c1C(=O)c1c(O)c3c(c(O)c1C2=O)CC(O)(/C(C)=N/NC(=O)CCCC(=O)N/N=C(\C)C1(O)Cc2c(O)c4c(c(O)c2C(OC2CC(N)C(O)C(C)O2)C1)C(=O)c1c(OC)cccc1C4=O)CC3OC1CC(N)C(O)C(C)O1` (stereo not drawn) here?
The T/C was 126 % of control.

What about the T/C (dose: 0.39 mg/kg/injection, schedule: Q01DX009 (ip), vehicle: water) of the same molecule?
The T/C was 149 % of control.

What about the T/C (dose: 0.78 mg/kg/injection, schedule: Q01DX009 (ip), vehicle: water) of the same molecule?
The T/C was 125 % of control.

And the T/C (dose: 1.56 mg/kg/injection, schedule: Q01DX009 (ip), vehicle: water)?
The T/C was 138 % of control.

And the T/C (dose: 3.13 mg/kg/injection, schedule: Q01DX009 (ip), vehicle: water)?
Its T/C is 149 % of control [5 of 6 alive].

What about the survivor count (dose: 6.25 mg/kg/injection, schedule: Q01DX009 (ip), vehicle: water) of the same molecule?
The survivor count was 0 of 6 and 5 of 6.

With `ClC(Cl)(Cl)C(=NNc1ccccc1)C(Cl)(Cl)Cl` as the molecule, how does the survivor count (dose: 120.0 mg/kg/injection, schedule: Q01DX005 (ip), vehicle: saline with Tween-80) read?
The survivor count was 4 of 6.

And the survivor count [1]?
Its survivor count is 0 of 6.

With `OC(/C=C\CC(O)(C(F)(F)F)C(F)(F)F)(C(F)(F)F)C(F)(F)F` as the molecule, how does the survivor count (dose: 25.0 mg/kg/injection, schedule: Q01DX009 (ip), vehicle: saline with Tween-80) read?
Its survivor count is 1 of 6.

What about the survivor count (dose: 50.0 mg/kg/injection, schedule: Q01DX009 (ip), vehicle: saline with Tween-80) of the same molecule?
Its survivor count is 0 of 6.

And the survivor count [2]?
Its survivor count is 0 of 6.

What about the survivor count [3] of the same molecule?
Its survivor count is 0 of 6.

`COC(=O)c1cc(-c2ccc([N+](=O)[O-])cc2)n2c(N)nnc2n1` was tested. Which survivor count [1] did it give?
Its survivor count is 6 of 6.

Which T/C (dose: 1.25 mg/kg/injection, schedule: Q01DX009 (ip), vehicle: water) does the source give for `CC[PH+](CC)CC.CC[PH+](CC)CC.[Au]` here?
Its T/C is 126 % of control.

What about the survivor count (dose: 2.5 mg/kg/injection, schedule: Q01DX009 (ip), vehicle: water) of the same molecule?
Its survivor count is 4 of 6.

And the survivor count (dose: 5.0 mg/kg/injection, schedule: Q01DX009 (ip), vehicle: water)?
Its survivor count is 3 of 6.

And the survivor count (dose: 10.0 mg/kg/injection, schedule: Q01DX009 (ip), vehicle: water)?
The survivor count was 0 of 6.

And the survivor count (dose: 20.0 mg/kg/injection, schedule: Q01DX009 (ip), vehicle: water)?
Its survivor count is 0 of 6.

Which results are given for `O=C[C@@H](CO)O[C@H](C=O)n1cnc2c(=O)[nH]cnc21`?
T/C (dose: 20.0 mg/kg/injection, schedule: Q01DX009 (ip), vehicle: saline): 125 and 128 % of control; T/C (dose: 40.0 mg/kg/injection, schedule: Q01DX009 (ip), vehicle: saline): 137, 145, 149 % of control; T/C (dose: 54.0 mg/kg/injection, schedule: Q01DX005 (ip), vehicle: saline): 127 % of control; T/C (dose: 80.0 mg/kg/injection, schedule: Q01DX009 (ip), vehicle: saline): 149 % of control; T/C (dose: 90.0 mg/kg/injection, schedule: Q01DX005 (ip), vehicle: saline): 145 % of control [6 of 7 alive]; survivor count (dose: 320.0 mg/kg/injection, schedule: Q01DX009 (ip), vehicle: saline): 5 of 6

`N#Cc1cc(Cl)ccc1[N+](=O)[O-]` was tested. Which survivor count [3] did it give?
The survivor count was 0 of 6.

For `C=C1C(=O)OC2C3OC(C)(CCC(O)C3COC(C)=O)CC(OC(=O)/C(=C/C)COC(C)=O)C12` (stereo not drawn), which survivor count (dose: 3.0 mg/kg/injection, schedule: Q01DX009 (ip), vehicle: suspension in saline) is on record?
Its survivor count is 6 of 6.

And the survivor count (dose: 6.0 mg/kg/injection, schedule: Q01DX009 (ip), vehicle: suspension in saline)?
Its survivor count is 5 of 6.

What about the survivor count (dose: 6.25 mg/kg/injection, schedule: Q01DX009 (ip), vehicle: Klucel (hydroxypropylcellulose) (HPC)) of the same molecule?
The survivor count was 1 of 6.

And the survivor count (dose: 12.0 mg/kg/injection, schedule: Q01DX009 (ip), vehicle: suspension in saline)?
Its survivor count is 1 of 6.

What about the survivor count (dose: 12.5 mg/kg/injection, schedule: Q01DX009 (ip), vehicle: Klucel (hydroxypropylcellulose) (HPC)) of the same molecule?
The survivor count was 4 of 6.

What about the survivor count (dose: 24.0 mg/kg/injection, schedule: Q01DX009 (ip), vehicle: suspension in saline) of the same molecule?
The survivor count was 0 of 6.

What about the survivor count (dose: 25.0 mg/kg/injection, schedule: Q01DX009 (ip), vehicle: Klucel (hydroxypropylcellulose) (HPC)) of the same molecule?
Its survivor count is 0 of 6.

With `O=C1c2cccc3cccc(c23)C(=O)N1c1ncn[nH]1` as the molecule, how does the survivor count (dose: 25.0 mg/kg/injection, schedule: Q01DX005 (ip), vehicle: saline with Tween-80) read?
The survivor count was 6 of 6.

What about the survivor count (dose: 50.0 mg/kg/injection, schedule: Q01DX005 (ip), vehicle: saline with Tween-80) of the same molecule?
Its survivor count is 5 of 6.

What about the survivor count [4] of the same molecule?
The survivor count was 6 of 6.

What does the source list for `COc1ccc2c(c1)nnn2C(=O)/C=C/c1ccccc1`?
survivor count [2]: 6 of 6; survivor count [3]: 6 of 6

`O=C(CCBr)N1CCN(C(=O)CCBr)CC1` was tested. Which T/C (dose: 20.0 mg/kg/injection, schedule: Q01DX010 (ip), vehicle: Klucel (hydroxypropylcellulose) (HPC)) did it give?
Its T/C is 149 % of control.

`NOCCCCCON` was tested. Which survivor count [5] did it give?
Its survivor count is 2 of 5.

Which survivor count [3] does the source give for `Cc1cc(Cl)ccc1S(=O)(=O)Cl` here?
The survivor count was 3 of 6.

`CCCCCCCCCCNCCSSCc1ccc(OC)cc1` was tested. Which survivor count (dose: 50.0 mg/kg/injection, schedule: Q01DX005 (ip), vehicle: Klucel (hydroxypropylcellulose) (HPC)) did it give?
Its survivor count is 5 of 5.

What about the survivor count (dose: 100.0 mg/kg/injection, schedule: Q01DX005 (ip), vehicle: Klucel (hydroxypropylcellulose) (HPC)) of the same molecule?
The survivor count was 0 of 5.

What about the survivor count (dose: 200.0 mg/kg/injection, schedule: Q01DX005 (ip), vehicle: Klucel (hydroxypropylcellulose) (HPC)) of the same molecule?
The survivor count was 0 of 5.

With `CC1[N-]CCCN(CCN(C)C)CCC[N-]C(C)C2CCCC1[N-]2.[Ni+3].[O-][Cl+3]([O-])([O-])O` (stereo not drawn) as the molecule, how does the survivor count (dose: 200.0 mg/kg/injection, schedule: Q01DX001 (ip), vehicle: saline) read?
Its survivor count is 2 of 6.

What about the survivor count (dose: 400.0 mg/kg/injection, schedule: Q01DX001 (ip), vehicle: saline) of the same molecule?
The survivor count was 1 of 6.

Which results are given for `Nc1ccc2c(NCCCCCCCCNc3c4ccccc4nc4cc(N)ccc34)c3ccccc3nc2c1`?
T/C (dose: 0.32 mg/kg/injection, schedule: Q01DX009 (ip), vehicle: other): 141 % of control; T/C (dose: 0.63 mg/kg/injection, schedule: Q01DX009 (ip), vehicle: other): 141 % of control; T/C (dose: 10.0 mg/kg/injection, schedule: Q01DX009 (ip), vehicle: other): 149 % of control

`O=C(Cn1ccnc1)Nc1ccc(Cl)cc1C(=O)c1ccccc1` was tested. Which survivor count [6] did it give?
Its survivor count is 6 of 6.

How did the survivor count (dose: 100.0 mg/kg/injection, schedule: Q01DX009 (ip), vehicle: Klucel (hydroxypropylcellulose) (HPC)) turn out when `O=CC(NC(=O)CCCc1ccc(N(CCCl)CCCl)cc1)C(O)C(O)C(O)CO` (stereo not drawn) was run?
The survivor count was 6 of 6.

And the survivor count [5]?
Its survivor count is 0 of 6.

Which T/C [4] does the source give for `Cc1ccc(C(=Nc2ccccc2)N=P(c2ccccc2)(c2ccccc2)c2ccccc2)cc1` here?
The T/C was 125 % of control.

And the survivor count [6]?
Its survivor count is 4 of 6 and 6 of 6.
